Values quoted from earlier work as cited in patent US6414014B1 (Bristol-Myers Squibb Company, priority 1992, dated 2002).

Details: cited from earlier work

Q: With `CC(=O)O[C@H]1C(=O)[C@@]2(C)[C@H]([C@H](OC(=O)c3ccccc3)[C@]3(O)C[C@H](OC(=O)[C@H](O)[C@@H](NC(=O)c4ccccc4)c4ccccc4)C(C)=C1C3(C)C)[C@]1(OC(C)=O)CO[C@@H]1C[C@@H]2O` [taxol] as the compound, how does the solubility in water read?
A: extremely low
